Laboratory results taken from PMC5471220.
No constants are given. Whether binding was seen depends on the method and setting. Binding seen in cells or lysates may run through a third protein. Binding can be weak; no strength is given.

Molecular target: T1, Hap5-Protein A (Candida glabrata) (UniProt Q6FM95)
T1 sequence: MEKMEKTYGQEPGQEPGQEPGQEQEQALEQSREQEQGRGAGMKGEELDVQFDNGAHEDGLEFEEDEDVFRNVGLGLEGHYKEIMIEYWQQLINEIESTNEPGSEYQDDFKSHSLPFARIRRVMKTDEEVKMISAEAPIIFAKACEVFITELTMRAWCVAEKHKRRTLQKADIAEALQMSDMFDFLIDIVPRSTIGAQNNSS
Test: co-IP; Hap5-Protein A as bait on Dynabeads PanMouse IgG, from 100 mL of C. glabrata culture at OD = 0.8 in CSM-His media; Yap5-myc (prey) detected by western blot with anti-myc antibody; performed twice

binding: binds
Substance: Yap5-myc (wild type) (Candida glabrata)
